No constants are given. Whether binding was seen depends on the method and setting. Some results given as binding are weak or reduced against the parent protein; the word gives no strength. Sequences can lack the tags named with a protein.
What was measured:
[1] = biological target: T1, CycD2 (Arath; CycD2; 1) in DB-vector (Arabidopsis) (UniProt P04386+P42752); assay: yeast two-hybrid (MaV203), X-Gal filter assay for β-galactosidase; AD construct x BD construct
[2] = biological target: T2, CycD1 (Arath; CycD1; 1) in DB-vector (A. thaliana) (UniProt P04386+P42751); assay: as above
[3] = biological target: T3, CycD3 (Arath; CycD3; 1) in DB-vector (Arabidopsis) (UniProt P04386+P42753); assay: as above
[4] = biological target: T1, CycD2 (Arath; CycD2; 1) in DB-vector (Arabidopsis); assay: yeast two-hybrid
[5] = biological target: T2, CycD1 (Arath; CycD1; 1) in DB-vector (A. thaliana); assay: yeast two-hybrid
[6] = biological target: T3, CycD3 (Arath; CycD3; 1) in DB-vector (Arabidopsis); assay: yeast two-hybrid

Protein sequences, listed by entry. Tags and fused reporters are not part of them. Lines headed by an entry give the natural chain unless they say otherwise; changes in a name come on top.
UniProt P04386: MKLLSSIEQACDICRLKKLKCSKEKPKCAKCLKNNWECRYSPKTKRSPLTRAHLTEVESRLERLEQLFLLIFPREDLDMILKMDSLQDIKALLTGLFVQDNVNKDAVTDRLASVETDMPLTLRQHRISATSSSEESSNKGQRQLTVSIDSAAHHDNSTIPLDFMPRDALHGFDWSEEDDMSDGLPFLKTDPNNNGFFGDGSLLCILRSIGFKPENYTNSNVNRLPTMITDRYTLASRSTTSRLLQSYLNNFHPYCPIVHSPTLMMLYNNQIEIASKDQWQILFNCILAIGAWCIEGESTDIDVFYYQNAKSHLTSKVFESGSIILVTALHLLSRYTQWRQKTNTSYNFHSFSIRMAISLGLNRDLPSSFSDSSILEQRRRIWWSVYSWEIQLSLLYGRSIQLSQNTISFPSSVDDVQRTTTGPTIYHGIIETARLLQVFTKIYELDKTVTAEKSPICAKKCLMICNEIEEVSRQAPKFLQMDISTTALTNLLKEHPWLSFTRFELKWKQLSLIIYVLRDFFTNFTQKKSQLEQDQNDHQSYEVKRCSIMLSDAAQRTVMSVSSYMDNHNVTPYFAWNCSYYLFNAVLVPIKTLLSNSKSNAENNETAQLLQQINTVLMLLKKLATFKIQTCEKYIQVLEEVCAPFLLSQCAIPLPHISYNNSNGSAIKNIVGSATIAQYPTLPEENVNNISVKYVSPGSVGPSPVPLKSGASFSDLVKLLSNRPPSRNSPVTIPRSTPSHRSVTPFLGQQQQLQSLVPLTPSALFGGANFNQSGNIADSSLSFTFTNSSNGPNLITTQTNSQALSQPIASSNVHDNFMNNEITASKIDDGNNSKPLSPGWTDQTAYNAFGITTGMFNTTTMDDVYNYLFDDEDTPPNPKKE
UniProt P42752: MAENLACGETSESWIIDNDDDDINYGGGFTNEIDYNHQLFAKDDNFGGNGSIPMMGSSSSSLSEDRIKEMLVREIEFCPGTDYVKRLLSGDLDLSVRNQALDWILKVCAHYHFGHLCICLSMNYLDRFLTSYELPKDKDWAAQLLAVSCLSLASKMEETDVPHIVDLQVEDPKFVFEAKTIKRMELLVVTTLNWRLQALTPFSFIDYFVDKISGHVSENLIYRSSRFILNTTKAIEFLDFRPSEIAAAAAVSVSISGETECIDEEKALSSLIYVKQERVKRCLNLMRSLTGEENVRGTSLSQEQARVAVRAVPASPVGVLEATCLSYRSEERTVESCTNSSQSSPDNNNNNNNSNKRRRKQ
UniProt P42751: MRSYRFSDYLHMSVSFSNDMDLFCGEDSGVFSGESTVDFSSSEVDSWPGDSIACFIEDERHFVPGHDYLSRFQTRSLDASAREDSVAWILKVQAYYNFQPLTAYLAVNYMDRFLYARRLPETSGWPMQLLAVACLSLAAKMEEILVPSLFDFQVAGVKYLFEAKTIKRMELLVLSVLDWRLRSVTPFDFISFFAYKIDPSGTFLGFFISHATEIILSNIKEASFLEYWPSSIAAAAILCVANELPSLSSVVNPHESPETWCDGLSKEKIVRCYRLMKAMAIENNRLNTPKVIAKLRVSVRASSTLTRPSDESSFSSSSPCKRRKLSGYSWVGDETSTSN
UniProt P42753: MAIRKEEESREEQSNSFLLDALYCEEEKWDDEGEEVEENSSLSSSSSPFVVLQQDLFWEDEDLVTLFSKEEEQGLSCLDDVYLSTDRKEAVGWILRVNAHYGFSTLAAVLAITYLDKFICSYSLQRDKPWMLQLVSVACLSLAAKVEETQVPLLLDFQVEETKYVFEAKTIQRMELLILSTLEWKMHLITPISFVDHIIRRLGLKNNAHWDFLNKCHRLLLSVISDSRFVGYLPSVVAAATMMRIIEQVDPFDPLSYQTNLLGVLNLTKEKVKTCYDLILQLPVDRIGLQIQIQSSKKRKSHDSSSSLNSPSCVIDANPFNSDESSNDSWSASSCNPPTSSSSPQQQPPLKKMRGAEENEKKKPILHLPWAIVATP

Measured: binding

B1: ICDK of Chenopodium rubrum (AD construct) (protein, not shown: large carriers)
chain: MAAAATPTSSPAKKIKKVSKSSYNIPQLRSRRKNLSAPENFAELETTPLEVAAVVEEEEVANCSSSEVITTARSDFPPSCCSSNYDQLSSSEPEVVKDDDGLGNRTADPEVESGEASSKQKESHRTEAREATKLDDQDYPATKSTVQIKMPSDSEIEEFFAVAEKDLQKRFSEKYNFDIVKDVPLKGRYDWVPINP
binds: all assays above

From US20040098763A1
